Measurements published in PubChem BioAssay AID1487 (National Center for Advancing Translational Sciences (NCATS), 2009).
Values joined by “and” are separate entries in the source; they are usually repeats but may differ in a detail not shown here. Equal values may be shown once. The list shows a part of the results. Shown are side measurements of this screen, not its main read-out; they come without a call. Compounds called inactive in the main read-out are mostly missing here. Words in brackets tell the shape of the fitted curve; partial curves, single points and poor fits give uncertain potencies.

Assay: qHTS Assay for Modulators of Lamin A Splicing
Settings: HeLa LMNA splicing GFP/RFP minigene ratio, 48 h
How it was run: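 Read-out is the ratio of GFP to DsRed2 object intensity, acquired by 488 nm laser-scanning cytometry on HeLa lamin A-EGFP minigene reporter cells. Compound incubation 48 hrs at 37 °C in Opti-MEM with 2% FBS; DMSO 0.5% final.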

[1] = measured here: GFP splicing reporter channel
[2] = measured here: RFP viability control channel

Compound | AC50 [1] | AC50 [2]
O=C(COc1ccccc1/C=C1/NC(=O)NC1=O)Nc1ccccc1 | 10 µM [rising, partial curve, poor fit] | 3.55 µM [rising, full curve]
O=C(Nc1nc2ccccc2n1CCN1CCCC1)c1ccc(Cl)cc1 | 31.6 µM [rising, single point] | 20 µM [rising, single point]
COc1cc(CN2CCCC(C(=O)c3sccc3C)C2)cc(Cl)c1O (centres undefined) | 0.0316 µM [falling, full curve, poor fit] | 
O=S(=O)(O)c1ccc(O)cc1 | 35.5 µM [falling, single point] | 2.24 µM [falling, single point]
CC(=O)OC(C)(C)/C=C/C(=O)[C@](C)(O)[C@H]1[C@H](O)C[C@@]2(C)[C@@H]3CC=C4[C@H](C[C@H](O)C(=O)C4(C)C)[C@]3(C)C(=O)C[C@]12C | 0.158 µM [falling, full curve] | 0.2 µM [falling, full curve]
COc1ccc(/C=C2/Sc3ccc(C(=O)N4CCc5ccccc5C4)cc3NC2=O)cc1 |  | 31.6 µM [rising, single point]
C=CCN1CC[C@]23c4c5ccc(O)c4O[C@H]2/C(=N/NC(=O)c2ccccc2)CC[C@@]3(O)[C@H]1C5 | 5.62 µM [falling, partial curve, poor fit] | 5.62 µM [falling, single point]
CC(C)CN1CCN(Cc2ccccc2C(F)(F)F)CC1CCO (centres undefined) | 15.8 µM [falling, single point] | 
N#CN | 14.1 µM [rising, partial curve] | 0.000891 µM [rising, full curve, poor fit]
CNC1(c2ccccc2Cl)CCCCC1=O (centres undefined) | 35.5 µM [rising, partial curve, poor fit] | 35.5 µM [rising, single point]
CC(C)CC(N(C)C)C1(c2ccc(Cl)cc2)CCC1 (centres undefined) | 0.02 µM [falling, full curve, poor fit] | 0.794 µM [rising, single point]
Cc1nc2ccccc2n1C1CCN(Cc2nnnn2CCc2ccccc2)CC1 |  | 7.08 µM [rising, single point]
Cc1ccc(N=CN(C)C=Nc2ccc(C)cc2C)c(C)c1 | 0.00141 µM [rising, full curve, poor fit] | 0.000891 µM [rising, full curve, poor fit]
CC(NC1=NCCS1)c1ccccc1 (centres undefined) |  | 25.1 µM [falling, partial curve, poor fit]
COC(=O)C(O)(c1ccc(NC(=S)NC(=O)c2ccc(Cl)cc2Cl)c(C)c1)C(F)(F)F (centres undefined) | 10 µM [rising, partial curve] | 11.2 µM [rising, partial curve]
CCc1ccc(C(=O)NCc2ccc(Cl)cc2Cl)cc1 | 12.6 µM [rising, single point] | 25.1 µM [rising, single point]
COc1ccc(CC2c3cc(OC)c(OC)cc3CCN2C)cc1OC (centres undefined) |  | 0.0178 µM [rising, full curve, poor fit]
CC(C)CCCC(C)C1CCC2C3CC(=O)[C@H]4CC(O)CC[C@]4(C)C3CC[C@@]12C (some centres undefined) | 22.4 µM [falling, single point] | 22.4 µM [falling, single point]
O=Cc1cn(Cc2ccc([N+](=O)[O-])cc2)c2ccccc12 | 31.6 µM [rising, single point] | 
CC(C)n1c(/C=C\[C@@H](O)C[C@@H](O)CC(=O)O)c(-c2ccc(F)cc2)c2ccccc21 | 1.26 µM [falling, partial curve, poor fit] | 2.24 µM [falling, partial curve]
Nc1ccc(C2(c3ccc(N)cc3)c3ccccc3-c3ccccc32)cc1 | 15.8 µM [rising, partial curve] | 14.1 µM [rising, partial curve]
CCc1ccccc1N1C(=O)/C(=C/c2ccc(N3CCN(C)CC3)o2)C(=O)NC1=S | 35.5 µM [falling, single point] | 35.5 µM [falling, single point]
CC(=O)OC1CC[C@@]2(C)C3CC(=O)[C@]4(C)C(C(C)=O)=CCC4C3CC[C@H]2C1 (some centres undefined) | 25.1 µM [falling, single point] | 12.6 µM [falling, partial curve]

Arranged by molecular weight (smallest number first): some entries from above.
Compound | AC50 [1] | AC50 [2]
CC(NC1=NCCS1)c1ccccc1 (centres undefined) |  | 25.1 µM [falling, partial curve, poor fit]
O=C(Nc1nc2ccccc2n1CCN1CCCC1)c1ccc(Cl)cc1 | 31.6 µM [rising, single point] | 20 µM [rising, single point]
CC(C)CCCC(C)C1CCC2C3CC(=O)[C@H]4CC(O)CC[C@]4(C)C3CC[C@@]12C (some centres undefined) | 22.4 µM [falling, single point] | 22.4 µM [falling, single point]

(listing goes on)

Compound | AC50 [1] | AC50 [2]
CC[C@H](CO)Nc1nc(NCc2ccccc2)c2ncn(C(C)C)c2n1 | 25.1 µM [falling, partial curve, poor fit] | 22.4 µM [falling, partial curve, poor fit]
Cc1ccc(NC(=O)N(Cc2ccc3c(c2)OCO3)C2CCN(Cc3ccccc3)CC2)cc1Cl | 14.1 µM [rising, single point] | 11.2 µM [rising, single point]
Cc1ccccc1-n1c(O)c(/C=C/C=Nc2ccccc2)c(=O)[nH]c1=O | 10 µM [falling, partial curve, poor fit] | 8.91 µM [falling, partial curve, poor fit]
COP(=S)(OC)Oc1ccc(SC)c(C)c1 | 0.0355 µM [rising, full curve] | 
CN1C2CCC1/C(=C/c1ccccn1)C(=O)/C2=C\c1ccccn1 | 0.891 µM [rising, partial curve] | 
ClC(Cl)Cl | 35.5 µM [falling, single point] | 28.2 µM [falling, single point]
C[N+](C)(C)CC(=O)O | 0.0316 µM [rising, full curve, poor fit] | 0.0316 µM [rising, full curve, poor fit]
O=c1[nH]c2ccccc2n1CCCN1CCC(n2c(=O)[nH]c3cc(Cl)ccc32)CC1 | 39.8 nM [falling, full curve, poor fit] and 6.31 µM [falling, partial curve, poor fit] and 35.5 µM [falling, single point] | 5.62 µM [falling, single point] and 25.1 µM [rising, single point]
CC(C)=CCCC(C)C1CC[C@@]2(C)C3=C(CC[C@@]12C)C1(C)CCC(O)C(C)(C)C1CC3 (some centres undefined) | 31.6 µM [rising, single point] | 31.6 µM [rising, single point]
CCOC(=O)c1ccc(NC(=O)c2c(O)[nH]c(=O)[nH]c2=O)cc1 | 2.82 µM [falling, full curve] | 2.82 µM [falling, full curve]
CCCCn1c(=O)c(C(=O)Nc2nnc(C(C)C)s2)c(O)c2ccccc21 |  | 6.31 µM [falling, partial curve, poor fit]
COc1cc2c(cc1OC)[C@@H]1C(=O)c3ccc4c(c3OC1CO2)CC(C(C)C)O4 (some centres undefined) | 11.2 µM [falling, single point] | 15.8 µM [falling, single point]
C[C@@H]1O[C@@H](O[C@H]2C[C@@H](O)[C@]3(CO)[C@H]4[C@H](O)C[C@]5(C)[C@@H](C6COC(=O)C6)CC[C@]5(O)[C@@H]4CC[C@]3(O)C2)[C@H](O)[C@H](O)[C@H]1O (some centres undefined) | 0.282 µM [falling, full curve, poor fit] | 3.98 µM [rising, full curve]
COc1ccc2c(c1)C13CCCCC1C(C2)N(C)CC3 (centres undefined) | 6.31 µM [falling, partial curve, poor fit] | 
CC(C)[N+](C)(CCC(C(N)=O)(c1ccccc1)c1ccccc1)C(C)C | 4.47 µM [falling, partial curve, poor fit] | 3.55 µM [falling, single point]
O=C(CN1CC=C(c2ccccc2)CC1)Nc1c(Cl)cccc1Cl | 11.2 µM [rising, single point] | 15.8 µM [rising, partial curve]
CN1CCc2cc3c(cc2[C@@H]1[C@@H]1OC(=O)c2c1ccc1c2OCO1)OCO3 | 0.282 µM [falling, full curve] | 0.282 µM [falling, full curve]
O=C(O)CCn1cc(C=C2C(=O)NC(=O)NC2=O)c(-c2ccc(Br)cc2)n1 | 8.91 µM [rising, partial curve, poor fit] | 8.91 µM [rising, partial curve, poor fit]
C#C[C@]1(O)CC[C@H]2[C@@H]3CCC4=CC(=O)CC[C@]4(C)[C@H]3CC[C@@]21C | 31.6 µM [falling, partial curve, poor fit] | 0.00447 µM [falling, full curve, poor fit]
COc1ccc2c(c1)CCC1C2CC[C@@]2(C)C(O)CCC12 (some centres undefined) | 20 µM [rising, single point] | 17.8 µM [rising, single point]
COc1cccc(C(=O)C2CCCN(Cc3cccc4c3OCO4)C2)c1 (centres undefined) |  | 0.0708 µM [rising, full curve, poor fit]
O=C1C2CCCN2C(c2cccs2)N1c1ccc(Cl)cc1 (centres undefined) | 1.26 µM [falling, full curve] | 1.12 µM [falling, full curve]
C/C=C(/C)C(=O)O[C@H]1C(C)=C2C([C@@H]1OC(=O)CCCCCCC)[C@@](C)(OC(C)=O)C[C@@H](OC(=O)CCC)[C@@]1(O)[C@H]2OC(=O)[C@@]1(C)O (some centres undefined) |  | 0.0501 µM [falling, full curve]
